# US20220362122A1, “Hair Treatment Compositions With Amine Derivatives” (ELC Management LLC, priority 2021, published 2022)
# Test: Odor evaluation by professional perfumer
# Settings: control = base formula with no alkalizer
substance,measurement,setting,value
Ammonium hydroxide [reference compound],order from no malodor to strongest malodor,primary alkanolamine compositions,Control>AMPD=Serinol>Tris>MEA=AMP>AEPD>NH3
same,order from no malodor to strongest malodor,tertiary alkanolamine compositions,Control>DMAMP>DMAPD>NH3
